From patent US9326513B2, “Fungicidal compositions” (Syngenta Participations AG, priority 2011, dated 2016)
Where “and” joins values, the source holds several entries; their conditions need not be identical. Equal values may be shown once. At least one read-out could not be matched to a standard name with certainty.

System: Septoria tritici
Experiment: Septoria tritici (leaf blotch), YBG microtiter plate, photometric growth inhibition after 6 days
Type: cell-based
Conditions: solo
From the text: In the following Tables ‘Activity (%)’ means the assessed experimental activity (% disease control in this test when compared to untreated control leaf disks under the same conditions, which show extensive disease development) and “P” is the expected value calculated (expected) activity according to the COLBY formula (see above). The column headed ‘S?’ indicates whether or not synergy was observed, with ‘y’ meaning that synergy was observed.
Septoria tritici (Leaf Blotch):
After placing solutions of the test compounds (containing 0.2% DMSO) into a microtiter plate (96-well format), an equal amount of the nutrient broth (YBG) was added to each of the well. Finally the fungal spore solution was added. The test plates were incubated at 20° C. The inhibition of growth was determined photometrically after 6 days and the activity calculated in relation to untreated control.

| SMILES | Activity (rate 0.15625 ppm) [%] | Activity (rate 0.3125 ppm) | Activity (rate 0.625 ppm) | Activity (rate 1.25 ppm) [%] | Activity (rate 2.5 ppm) | Activity (rate 5 ppm) [%] | Activity (rate 0.078125 ppm) [%] |
| --- | --- | --- | --- | --- | --- | --- | --- |
| CCN(C)/C=N/c1cc(Br)c(OC2Cc3ccccc3C2)nc1C [Q.062] | 38 | 42% and 36% and 22% and 33% | 35% and 48% and 40% and 26% | 48 | 49% and 41% | 57 | – |
| CCN(C)/C=N/c1cc(Br)c(OC(C)c2cc(F)cc(F)c2)nc1C (centres unmarked) [Q.113] | 34 | – | – | – | – | – | 33 |
| CCN(C)/C=N/c1cc(Br)c(O[C@H]2CC[C@@H](C(C)C)CC2)nc1C [Q.135] | – | 35% | 25% | 24 | – | – | – |
